This note sets out measurements from publication PMC11941939 (International Journal of Molecular Sciences, 2025).

Data set [1] in a line: general procedure: Fmoc solid-phase peptide synthesis; Rink Amide MBHA resin (100-200 mesh, loading 0.78 mmol/g); HBTU/Oxyma/DIPEA. Conditions: TFA salt; for final HPLC purity: analytical HPLC (Phenomenex Luna C18(2), photodiode array detector).
A short description of data set [2]: general procedure: Fmoc solid-phase peptide synthesis; Rink Amide MBHA; HBTU/Oxyma/DIPEA. Conditions: whole synthesis, TFA salt.
Data set [3] in a line: general procedure: Fmoc solid-phase peptide synthesis; Fmoc-Cys(Trt)-preloaded Wang resin; HBTU/Oxyma/DIPEA. As to conditions: whole synthesis, TFA salt.
Where [4] appears, read: whole synthesis, scale of the general procedure 50 mg resin.

Take “H2N-Ava-Gln-Trp-Ala-Val-Sar-FA01010-Tle-NH2”: in data set [1] (whole synthesis), the crude mass is recorded as 28.7 mg and the isolated mass came to 13.1 mg. Besides, the isolated yield in data set [1] (setting [4]) was 19.2%.
On to NOTA-Ava-Lys(N3)-Glu-(Ava-BBN2)2, for which, in data set [1] (conjugation step), the conjugation yield is on record as 83%.
With NOTA-Ava-Glu-(Ava-BBN2)2, in data set [1] (conjugation step), the conjugation yield came to 81% and the “final HPLC purity” value worked out at 99%.
With Ava-Lys(N3)-Glu-(Ava-BBN2)2, in data set [1] (whole synthesis), the crude mass is 14 mg and the isolated mass is given as 5.4 mg. In data set [1] (setting [4]), the isolated yield amounted to 56%.
Turning to “H2N-Ava-Lys(N3)-Gln-Trp-Ala-Val-Sar-His-FA01010-Tle-NH2”, the isolated mass in data set [2] amounted to 21.5 mg. Moreover, in data set [1] (setting [4]), the “final HPLC purity” value is given as 90% and the isolated yield came to 45.3%.
For the substance H-SKPLPEVTDEYC-OH, the isolated mass in data set [3] is reported as 38 mg. In addition, in data set [1] (setting [4]), the isolated yield stood at 61.3%.
For the substance NOTA-Ava-Lys(N3)-BBN2, in data set [1] (conjugation step), the conjugation yield was found to be 68% and the “final HPLC purity” value turned out to be 86%.
